According to patent publication US20230190614A1, “SELF-TANNING COMPOSITIONS CONTAINING AN ALKYL SULFONATE AND METHODS THEREOF” (Kao Corporation, priority 2020, published 2023):

Tested on: keratin (stratum corneum)
Assay: Determination of relative α-helix/β-sheet index ratio (FT-IR of stratum corneum exposed to 2% aqueous solution)
Set-up: species or system human
Settings: 2% (w/w %) aqueous solution of the salt, relative to water; FIG. 9A

Structure (SMILES) | relative α-helix/β-sheet index ratio
CCCCCCCCS(=O)(=O)[O-].[Na+] [SOS, sodium 1-octanesulfonate] | about 0.97
CCCCCCCCCCCCOS(=O)(=O)[O-].[Na+] [SLS, sodium lauryl sulfate] | about 0.86
